The experiment addresses T1, Ego1(∆1-111:His6) (S. cerevisiae) (UniProt Q02205).
T1 sequence: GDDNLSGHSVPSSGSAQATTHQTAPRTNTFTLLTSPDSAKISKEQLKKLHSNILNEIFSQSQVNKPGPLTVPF
The experiment in a line: SEC; EGOC components co-expressed in E. coli, Ni-NTA by the His6 on Ego1, then Superdex GF200 Increase in 50 mM MES-NaOH pH 6.0, 300 mM NaCl, 0.15% CHAPS, 1 mM MgCl2, 0.5 mM DTT; fractions on Coomassie-stained SDS-PAGE; both purified. Background: SEC sorts molecules by how far they enter the pores of the column.

Amino acid sequences for entries named in this document (tags omitted). A change or cut given only in a name is not applied to a line headed by its entry.
UniProt P38247: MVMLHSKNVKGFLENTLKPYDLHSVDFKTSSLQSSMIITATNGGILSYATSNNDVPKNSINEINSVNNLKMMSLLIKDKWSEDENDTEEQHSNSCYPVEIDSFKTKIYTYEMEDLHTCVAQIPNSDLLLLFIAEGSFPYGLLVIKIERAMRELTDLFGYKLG

Results are given in words; binding and its absence hold for the method and conditions named. Binding can be weak; no strength is given. Tags and fused reporters may be left off the sequences shown.

Regarding Ego3 (from UniProt P38247), the binding result is listed as “binds”.
